The values below come from US20210261636A1, “NEOANTIGENS EXPRESSED IN MULTIPLE MYELOMA AND THEIR USES” (Janssen Biotech, Inc., priority 2020, published 2021).

For the series, the system named is CD138+ MM samples, MM and lymphoma cell lines, healthy donor PBMCs, sorted immune cells and healthy donor derived tissues. Description: Quantitative PCR analysis of multiple myeloma neoantigen expression in tumor and normal tissues. More on the design: species or system human. The note with it: qPCR, Ct normalized against RPL13A; high expression = ΔCt below 15; sorted immune cells from three healthy donors. (Real-time PCR tracks product formation cycle by cycle.)
For “IALQYCCTCSISQ [AS43, alternative splicing, LYSMD3]”, the “expression in normal donor-derived B-cells and plasma cells” value (from here on “expression”) is “showing expression”. With “QRDRDSIKVGLKIYRLRNGLKGL [AS76, alternative splicing, TLE4]”, the “expression” value is recorded as “showing expression”. As to “GRAGQGGGMISVSQEFIK [FUS7, gene fusion FAM98A-> LOC105374454]”, the “expression” value is listed as “showing expression”. The entry for “ISKRLKSRRRSGWQLNRAGNRGLSPGLGLFPRGCCRWGGAYTRLPSANQT [FUS20, gene fusion PTGES2-> SLC25A25-AS1]” is “showing expression”.
